Compound in this assay: Nc1nc2c(ncn2[C@@H]2O[C@H](COP(=O)(O)OP(=O)(O)OP(=O)(O)O)[C@@H](O)[C@H]2O)c(=O)[nH]1 [guanosine triphosphate]
Put plainly: NP40-soluble protein abundance relative to vehicle (solubility fold change) (ratio); higher = more soluble protein in presence of GTP. In a few lines:
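Across three independent experiments, values are fold changes against the detergent-processed vehicle for each replicate, based on vsn-normalised intensities. The samples were Jurkat crude lysate treated with eight concentrations (0.1 to 10 mM) for 10 min at room temperature and then 3 min at 37 °C. Lysate was solubilised with 0.8% NP40 and benzonase, ultracentrifuged, and the supernatant analysed by TMT-labelled LC-MS/MS.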

Chains of the proteins cited; added tags and fusions are not shown. Lines headed by an entry give the natural chain unless they say otherwise; changes in a name come on top.
UniProt Q58FF6, whole entry: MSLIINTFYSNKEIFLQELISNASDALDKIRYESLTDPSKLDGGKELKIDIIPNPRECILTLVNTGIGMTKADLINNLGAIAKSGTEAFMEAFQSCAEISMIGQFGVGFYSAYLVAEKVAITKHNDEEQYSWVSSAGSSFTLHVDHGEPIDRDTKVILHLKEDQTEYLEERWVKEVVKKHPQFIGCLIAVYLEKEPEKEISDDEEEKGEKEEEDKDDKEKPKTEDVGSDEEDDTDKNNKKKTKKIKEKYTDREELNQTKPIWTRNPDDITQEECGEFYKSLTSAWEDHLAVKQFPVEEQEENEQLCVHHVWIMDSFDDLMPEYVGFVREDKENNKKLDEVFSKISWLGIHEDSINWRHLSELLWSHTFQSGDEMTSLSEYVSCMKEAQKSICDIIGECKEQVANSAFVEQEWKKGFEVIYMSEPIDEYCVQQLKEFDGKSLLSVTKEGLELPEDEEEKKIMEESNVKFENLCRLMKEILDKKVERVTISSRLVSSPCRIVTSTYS
UniProt Q5RI15: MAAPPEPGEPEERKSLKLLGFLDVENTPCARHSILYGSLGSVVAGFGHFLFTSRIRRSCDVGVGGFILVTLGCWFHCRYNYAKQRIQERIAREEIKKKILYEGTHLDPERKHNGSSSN
UniProt Q562F6: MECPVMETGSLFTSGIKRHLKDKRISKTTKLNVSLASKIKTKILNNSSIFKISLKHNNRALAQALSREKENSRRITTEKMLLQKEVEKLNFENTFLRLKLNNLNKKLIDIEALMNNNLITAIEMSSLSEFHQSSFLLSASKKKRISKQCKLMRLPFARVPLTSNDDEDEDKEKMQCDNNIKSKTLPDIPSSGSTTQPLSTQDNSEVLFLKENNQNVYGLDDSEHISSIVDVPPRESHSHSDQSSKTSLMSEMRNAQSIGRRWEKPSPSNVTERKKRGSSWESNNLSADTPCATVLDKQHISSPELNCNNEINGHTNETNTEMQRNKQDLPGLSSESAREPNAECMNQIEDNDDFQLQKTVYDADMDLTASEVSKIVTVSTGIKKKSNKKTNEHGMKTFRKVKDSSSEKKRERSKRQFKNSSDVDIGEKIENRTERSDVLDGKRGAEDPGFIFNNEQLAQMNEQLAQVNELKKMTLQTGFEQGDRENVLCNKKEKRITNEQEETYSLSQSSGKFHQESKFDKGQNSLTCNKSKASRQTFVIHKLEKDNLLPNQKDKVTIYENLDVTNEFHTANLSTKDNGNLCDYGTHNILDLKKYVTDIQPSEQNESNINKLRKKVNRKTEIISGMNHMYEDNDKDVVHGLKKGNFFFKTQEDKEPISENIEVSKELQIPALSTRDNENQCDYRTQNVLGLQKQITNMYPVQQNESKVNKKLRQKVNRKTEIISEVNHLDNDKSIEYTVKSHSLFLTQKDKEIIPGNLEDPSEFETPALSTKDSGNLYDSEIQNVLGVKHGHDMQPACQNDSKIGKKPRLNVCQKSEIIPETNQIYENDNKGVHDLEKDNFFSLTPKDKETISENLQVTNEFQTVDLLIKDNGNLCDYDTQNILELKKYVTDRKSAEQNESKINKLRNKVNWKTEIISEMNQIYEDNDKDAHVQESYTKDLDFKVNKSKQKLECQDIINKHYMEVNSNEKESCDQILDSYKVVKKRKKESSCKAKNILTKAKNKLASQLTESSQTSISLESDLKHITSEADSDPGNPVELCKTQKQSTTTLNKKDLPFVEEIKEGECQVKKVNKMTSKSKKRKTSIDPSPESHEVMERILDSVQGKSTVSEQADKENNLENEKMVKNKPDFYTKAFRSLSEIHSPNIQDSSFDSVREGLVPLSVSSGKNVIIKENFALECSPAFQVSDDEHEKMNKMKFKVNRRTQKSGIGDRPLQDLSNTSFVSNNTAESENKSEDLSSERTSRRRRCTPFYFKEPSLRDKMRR
UniProt Q49AR2: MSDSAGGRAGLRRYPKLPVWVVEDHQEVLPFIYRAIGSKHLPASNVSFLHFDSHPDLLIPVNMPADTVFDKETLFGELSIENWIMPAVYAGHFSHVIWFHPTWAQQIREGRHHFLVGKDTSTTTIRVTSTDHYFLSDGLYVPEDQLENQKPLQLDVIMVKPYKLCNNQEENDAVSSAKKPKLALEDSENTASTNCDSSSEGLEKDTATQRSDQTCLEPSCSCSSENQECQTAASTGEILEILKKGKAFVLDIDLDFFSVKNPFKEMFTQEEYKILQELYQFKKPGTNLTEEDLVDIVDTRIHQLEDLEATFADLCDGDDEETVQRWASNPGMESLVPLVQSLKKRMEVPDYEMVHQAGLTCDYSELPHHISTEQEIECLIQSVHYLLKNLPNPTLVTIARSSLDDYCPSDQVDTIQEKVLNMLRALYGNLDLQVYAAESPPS
UniProt Q16594, whole entry: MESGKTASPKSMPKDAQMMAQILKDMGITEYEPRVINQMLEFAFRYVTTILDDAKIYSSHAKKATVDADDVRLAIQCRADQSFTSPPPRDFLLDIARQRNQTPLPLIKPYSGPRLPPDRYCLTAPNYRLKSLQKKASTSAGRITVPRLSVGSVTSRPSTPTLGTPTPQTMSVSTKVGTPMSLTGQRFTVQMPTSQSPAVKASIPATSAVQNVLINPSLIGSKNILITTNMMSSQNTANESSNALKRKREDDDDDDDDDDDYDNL
UniProt Q14790: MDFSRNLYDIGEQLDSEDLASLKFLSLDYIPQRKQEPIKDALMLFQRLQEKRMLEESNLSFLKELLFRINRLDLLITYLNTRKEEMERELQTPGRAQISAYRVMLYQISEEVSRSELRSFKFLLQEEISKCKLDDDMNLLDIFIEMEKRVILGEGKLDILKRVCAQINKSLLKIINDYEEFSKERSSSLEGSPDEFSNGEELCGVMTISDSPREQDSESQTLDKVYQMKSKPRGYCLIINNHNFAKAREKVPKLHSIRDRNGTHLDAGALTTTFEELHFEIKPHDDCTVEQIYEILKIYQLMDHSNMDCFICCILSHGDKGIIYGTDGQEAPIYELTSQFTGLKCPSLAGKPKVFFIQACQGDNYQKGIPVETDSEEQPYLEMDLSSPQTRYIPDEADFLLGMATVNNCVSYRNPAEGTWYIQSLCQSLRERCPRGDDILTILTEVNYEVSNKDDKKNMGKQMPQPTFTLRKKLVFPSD
UniProt Q5JU69: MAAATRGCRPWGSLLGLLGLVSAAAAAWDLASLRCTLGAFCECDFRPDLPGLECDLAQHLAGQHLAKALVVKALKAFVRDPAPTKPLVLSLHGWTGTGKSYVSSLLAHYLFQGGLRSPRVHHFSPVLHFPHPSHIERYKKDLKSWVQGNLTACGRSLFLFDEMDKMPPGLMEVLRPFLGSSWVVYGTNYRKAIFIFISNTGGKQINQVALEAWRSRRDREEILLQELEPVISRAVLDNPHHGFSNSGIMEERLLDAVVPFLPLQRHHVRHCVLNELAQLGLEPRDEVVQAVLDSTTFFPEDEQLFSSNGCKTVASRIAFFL
UniProt Q15386: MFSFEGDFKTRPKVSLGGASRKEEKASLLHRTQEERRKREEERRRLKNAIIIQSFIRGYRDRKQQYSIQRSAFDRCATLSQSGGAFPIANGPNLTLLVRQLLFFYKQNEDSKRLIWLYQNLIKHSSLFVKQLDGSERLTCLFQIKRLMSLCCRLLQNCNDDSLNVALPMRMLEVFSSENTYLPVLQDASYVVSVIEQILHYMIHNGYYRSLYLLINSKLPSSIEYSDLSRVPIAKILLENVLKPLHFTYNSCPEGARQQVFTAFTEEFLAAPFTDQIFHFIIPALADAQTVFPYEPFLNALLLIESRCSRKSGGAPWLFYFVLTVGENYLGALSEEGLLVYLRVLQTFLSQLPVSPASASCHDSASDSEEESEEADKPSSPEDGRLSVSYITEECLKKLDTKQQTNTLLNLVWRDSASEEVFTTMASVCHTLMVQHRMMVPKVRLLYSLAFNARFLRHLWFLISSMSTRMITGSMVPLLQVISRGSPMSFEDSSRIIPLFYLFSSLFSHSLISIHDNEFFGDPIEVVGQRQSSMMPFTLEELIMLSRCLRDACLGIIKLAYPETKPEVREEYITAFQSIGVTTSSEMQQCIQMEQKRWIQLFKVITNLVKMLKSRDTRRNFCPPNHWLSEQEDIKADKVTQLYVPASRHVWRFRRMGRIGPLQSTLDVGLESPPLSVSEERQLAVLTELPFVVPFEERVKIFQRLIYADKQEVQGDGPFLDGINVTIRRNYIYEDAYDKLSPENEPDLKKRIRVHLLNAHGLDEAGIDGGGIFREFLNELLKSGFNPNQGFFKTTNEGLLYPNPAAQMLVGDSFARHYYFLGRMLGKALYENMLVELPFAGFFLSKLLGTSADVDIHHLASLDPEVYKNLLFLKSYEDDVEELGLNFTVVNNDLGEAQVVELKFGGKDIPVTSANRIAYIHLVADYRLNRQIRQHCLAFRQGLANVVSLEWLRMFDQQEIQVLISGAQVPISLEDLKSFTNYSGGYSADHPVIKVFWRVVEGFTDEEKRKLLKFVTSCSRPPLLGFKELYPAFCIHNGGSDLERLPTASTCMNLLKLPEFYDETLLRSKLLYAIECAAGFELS
UniProt Q49B96: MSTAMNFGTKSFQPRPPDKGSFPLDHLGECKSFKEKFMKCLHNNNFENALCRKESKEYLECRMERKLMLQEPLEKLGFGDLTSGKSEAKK
UniProt Q5JRA6: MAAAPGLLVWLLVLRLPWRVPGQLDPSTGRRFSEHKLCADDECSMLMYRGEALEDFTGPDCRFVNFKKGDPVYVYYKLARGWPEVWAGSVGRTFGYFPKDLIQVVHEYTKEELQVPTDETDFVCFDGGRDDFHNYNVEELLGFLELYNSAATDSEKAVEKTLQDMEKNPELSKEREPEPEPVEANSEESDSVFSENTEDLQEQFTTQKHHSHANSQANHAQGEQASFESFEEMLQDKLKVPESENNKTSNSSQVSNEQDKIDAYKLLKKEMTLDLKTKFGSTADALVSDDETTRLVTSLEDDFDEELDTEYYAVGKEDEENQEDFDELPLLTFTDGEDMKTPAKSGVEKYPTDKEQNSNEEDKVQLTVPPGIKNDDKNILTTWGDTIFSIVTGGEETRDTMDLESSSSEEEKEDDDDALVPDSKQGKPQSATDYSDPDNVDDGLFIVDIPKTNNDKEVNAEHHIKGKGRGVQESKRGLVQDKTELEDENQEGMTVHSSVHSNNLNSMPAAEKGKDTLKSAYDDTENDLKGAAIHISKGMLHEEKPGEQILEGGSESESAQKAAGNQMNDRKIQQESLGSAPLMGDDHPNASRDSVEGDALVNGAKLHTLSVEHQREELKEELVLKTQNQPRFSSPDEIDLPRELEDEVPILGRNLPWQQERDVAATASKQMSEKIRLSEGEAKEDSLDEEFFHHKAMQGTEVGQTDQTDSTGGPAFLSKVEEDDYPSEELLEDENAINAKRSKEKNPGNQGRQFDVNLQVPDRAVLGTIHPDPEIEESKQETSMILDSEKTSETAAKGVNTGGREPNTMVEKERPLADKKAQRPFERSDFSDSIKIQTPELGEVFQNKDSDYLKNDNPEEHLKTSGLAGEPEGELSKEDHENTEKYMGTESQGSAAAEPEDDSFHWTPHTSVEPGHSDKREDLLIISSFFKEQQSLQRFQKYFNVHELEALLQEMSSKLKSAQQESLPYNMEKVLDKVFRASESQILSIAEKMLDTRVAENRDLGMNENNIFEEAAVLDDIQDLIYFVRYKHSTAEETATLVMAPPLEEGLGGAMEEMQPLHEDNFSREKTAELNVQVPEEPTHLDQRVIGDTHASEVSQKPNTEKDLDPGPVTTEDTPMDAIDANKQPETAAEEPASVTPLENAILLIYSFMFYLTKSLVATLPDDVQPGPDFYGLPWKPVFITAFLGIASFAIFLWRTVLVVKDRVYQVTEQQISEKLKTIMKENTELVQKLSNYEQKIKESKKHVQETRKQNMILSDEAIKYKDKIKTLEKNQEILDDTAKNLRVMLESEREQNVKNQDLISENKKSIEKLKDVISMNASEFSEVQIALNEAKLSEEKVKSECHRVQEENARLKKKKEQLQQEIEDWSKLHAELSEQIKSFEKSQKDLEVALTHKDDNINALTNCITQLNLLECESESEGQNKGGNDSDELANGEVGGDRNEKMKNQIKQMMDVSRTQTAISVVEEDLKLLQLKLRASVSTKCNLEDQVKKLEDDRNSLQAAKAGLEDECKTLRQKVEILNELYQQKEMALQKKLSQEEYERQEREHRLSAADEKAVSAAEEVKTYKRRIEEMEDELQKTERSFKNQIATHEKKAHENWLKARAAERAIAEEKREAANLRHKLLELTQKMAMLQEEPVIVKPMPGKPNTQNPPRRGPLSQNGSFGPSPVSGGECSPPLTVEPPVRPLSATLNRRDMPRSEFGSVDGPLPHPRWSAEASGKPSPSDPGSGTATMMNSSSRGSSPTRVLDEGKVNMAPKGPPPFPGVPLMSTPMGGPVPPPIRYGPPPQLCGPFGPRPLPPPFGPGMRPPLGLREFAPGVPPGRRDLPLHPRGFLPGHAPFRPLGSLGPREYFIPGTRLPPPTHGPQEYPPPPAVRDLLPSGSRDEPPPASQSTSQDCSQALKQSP

± gives the standard deviation of the averaged measurements. The list shows a part of the results.

Regarding UniProt Q15056 and related entries, the NP40-soluble protein abundance reads like this: (concentration: 0.1mM) 0.879 ± 0.047; (concentration: 0.5mM) 0.887 ± 0.077; (concentration: 1mM) 0.924 ± 0.06; (concentration: 2mM) 0.909 ± 0.091; (concentration: 4mM) 0.876 ± 0.081; (concentration: 6mM) 0.894 ± 0.076. For the same target, the NP40-soluble protein abundance came to 0.892 ± 0.078 (concentration: 8mM) and 0.944 ± 0.064 (concentration: 10mM).
Regarding HSP90AB4P (UniProt Q58FF6), the NP40-soluble protein abundance (concentration: 0.1mM) came out at 0.892 ± 0.094; the NP40-soluble protein abundance (concentration: 0.5mM) worked out at 0.926 ± 0.14; the NP40-soluble protein abundance (concentration: 1mM) worked out at 0.902 ± 0.16; the NP40-soluble protein abundance (concentration: 2mM) was 0.862 ± 0.076; the NP40-soluble protein abundance (concentration: 4mM) turned out to be 0.952 ± 0.15; the NP40-soluble protein abundance (concentration: 6mM) is 0.904 ± 0.16. Moreover, the NP40-soluble protein abundance amounted to 0.888 ± 0.15 (concentration: 8mM) and 0.888 ± 0.15 (concentration: 10mM).
For UniProt Q5RI15 and related entries, the NP40-soluble protein abundance (concentration: 0.1mM) turned out to be 0.954 ± 0.12; the NP40-soluble protein abundance (concentration: 0.5mM) came to 0.973 ± 0.17; the NP40-soluble protein abundance (concentration: 1mM) is 1.02 ± 0.086; the NP40-soluble protein abundance (concentration: 2mM) was 0.908 ± 0.16; the NP40-soluble protein abundance (concentration: 4mM) was 0.895 ± 0.13; the NP40-soluble protein abundance (concentration: 6mM) was 0.943 ± 0.15. The NP40-soluble protein abundance worked out at 1.02 ± 0.12 (concentration: 8mM) and 0.902 ± 0.12 (concentration: 10mM).
For the target UniProt Q562F6 and related entries, the NP40-soluble protein abundance is 0.9992 ± 0.0099 (concentration: 0.1mM); 1.02 ± 0.087 (concentration: 0.5mM); 1.04 ± 0.12 (concentration: 1mM); 1.06 ± 0.038 (concentration: 2mM); 0.979 ± 0.029 (concentration: 4mM); 0.966 ± 0.047 (concentration: 6mM). Moreover, the NP40-soluble protein abundance (concentration: 8mM) turned out to be 1.03 ± 0.047 and the NP40-soluble protein abundance (concentration: 10mM) was 1.02 ± 0.045.
For the target UniProt Q5T8P6 and related entries, the NP40-soluble protein abundance is, setting by setting: (concentration: 0.1mM) 1.02 ± 0.025; (concentration: 0.5mM) 1.12 ± 0.058; (concentration: 1mM) 1.12 ± 0.056; (concentration: 2mM) 1.09 ± 0.058; (concentration: 4mM) 1.07 ± 0.052; (concentration: 6mM) 1.09 ± 0.044. Moreover, the NP40-soluble protein abundance is, setting by setting: (concentration: 8mM) 1.11 ± 0.096; (concentration: 10mM) 1.08 ± 0.074.
Consider C5orf22 (UniProt Q49AR2), for which the NP40-soluble protein abundance is, setting by setting: (concentration: 0.1mM) 1.02 ± 0.078; (concentration: 0.5mM) 0.998 ± 0.087; (concentration: 1mM) 1.03 ± 0.14; (concentration: 2mM) 0.967 ± 0.15; (concentration: 4mM) 0.976 ± 0.14; (concentration: 6mM) 0.952 ± 0.14. In addition, the NP40-soluble protein abundance (concentration: 8mM) was 0.966 ± 0.096 and the NP40-soluble protein abundance (concentration: 10mM) was 0.946 ± 0.15.
Consider TAF9 (UniProt Q16594), for which the NP40-soluble protein abundance worked out at 1.06 ± 0.11 (concentration: 0.1mM); 0.991 ± 0.044 (concentration: 0.5mM); 1.086 ± 0.0081 (concentration: 1mM); 1.12 ± 0.018 (concentration: 2mM); 1.1 ± 0.086 (concentration: 4mM); 1.14 ± 0.073 (concentration: 6mM). Moreover, the NP40-soluble protein abundance turned out to be 1.24 ± 0.077 (concentration: 8mM) and 1.29 ± 0.033 (concentration: 10mM).
For the target UniProt Q14790 and related entries, the NP40-soluble protein abundance by setting is: (concentration: 0.1mM) 0.967 ± 0.022; (concentration: 0.5mM) 0.958 ± 0.063; (concentration: 1mM) 0.876 ± 0.032; (concentration: 2mM) 0.901 ± 0.045; (concentration: 4mM) 0.874 ± 0.043; (concentration: 6mM) 0.889 ± 0.027. Moreover, the NP40-soluble protein abundance is, setting by setting: (concentration: 8mM) 0.802 ± 0.049; (concentration: 10mM) 0.824 ± 0.078.
For the target UniProt Q5JSZ5, the NP40-soluble protein abundance runs as follows: (concentration: 0.1mM) 1.04 ± 0.13; (concentration: 0.5mM) 1.03 ± 0.11; (concentration: 1mM) 1.1 ± 0.14; (concentration: 2mM) 1.14 ± 0.087; (concentration: 4mM) 1.21 ± 0.13; (concentration: 6mM) 1.34 ± 0.19. The NP40-soluble protein abundance was 1.45 ± 0.26 (concentration: 8mM) and 1.66 ± 0.27 (concentration: 10mM).
Regarding TOR2A (UniProt Q5JU69), the NP40-soluble protein abundance was 1.11 ± 0.031 (concentration: 0.1mM); 1.11 ± 0.062 (concentration: 0.5mM); 1.12 ± 0.11 (concentration: 1mM); 1.14 ± 0.16 (concentration: 2mM); 1.11 ± 0.15 (concentration: 4mM); 1.16 ± 0.11 (concentration: 6mM). The NP40-soluble protein abundance reads like this: (concentration: 8mM) 1.14 ± 0.12; (concentration: 10mM) 1.09 ± 0.14.
As to UniProt Q5JUR7, the NP40-soluble protein abundance (concentration: 0.1mM) turned out to be 1.04 ± 0.022; the NP40-soluble protein abundance (concentration: 0.5mM) was 1.03 ± 0.048; the NP40-soluble protein abundance (concentration: 1mM) amounted to 0.934 ± 0.058; the NP40-soluble protein abundance (concentration: 2mM) was 0.955 ± 0.032; the NP40-soluble protein abundance (concentration: 4mM) amounted to 0.986 ± 0.033; the NP40-soluble protein abundance (concentration: 6mM) stood at 0.991 ± 0.033. Also, the NP40-soluble protein abundance stood at 0.977 ± 0.042 (concentration: 8mM) and 0.964 ± 0.042 (concentration: 10mM).
UBE3C (UniProt Q15386): the NP40-soluble protein abundance stood at 1.04 ± 0.041 (concentration: 0.1mM); 1.01 ± 0.047 (concentration: 0.5mM); 0.931 ± 0.066 (concentration: 1mM); 0.94 ± 0.1 (concentration: 2mM); 0.943 ± 0.087 (concentration: 4mM); 0.923 ± 0.072 (concentration: 6mM). For the same target, the NP40-soluble protein abundance reads like this: (concentration: 8mM) 0.854 ± 0.043; (concentration: 10mM) 0.919 ± 0.066.
As for UniProt Q16698 and related entries, the NP40-soluble protein abundance reads like this: (concentration: 0.1mM) 0.994 ± 0.03; (concentration: 0.5mM) 0.978 ± 0.056; (concentration: 1mM) 1.03 ± 0.092; (concentration: 2mM) 1.07 ± 0.18; (concentration: 4mM) 1.23 ± 0.27; (concentration: 6mM) 1.37 ± 0.36. The NP40-soluble protein abundance reads like this: (concentration: 8mM) 1.42 ± 0.34; (concentration: 10mM) 1.39 ± 0.38.
As to COX19 (UniProt Q49B96), the NP40-soluble protein abundance by setting is: (concentration: 0.1mM) 1.15 ± 0.16; (concentration: 0.5mM) 0.953 ± 0.12; (concentration: 1mM) 1.12 ± 0.13; (concentration: 2mM) 0.982 ± 0.11; (concentration: 4mM) 1.09 ± 0.19; (concentration: 6mM) 0.927 ± 0.13. In addition, the NP40-soluble protein abundance is, setting by setting: (concentration: 8mM) 1.05 ± 0.12; (concentration: 10mM) 0.911 ± 0.1.
On to MIA3 (UniProt Q5JRA6), for which the NP40-soluble protein abundance runs as follows: (concentration: 0.1mM) 0.965 ± 0.061; (concentration: 0.5mM) 0.948 ± 0.087; (concentration: 1mM) 0.998 ± 0.071; (concentration: 2mM) 0.946 ± 0.11; (concentration: 4mM) 0.953 ± 0.08; (concentration: 6mM) 0.968 ± 0.13. Further, the NP40-soluble protein abundance runs as follows: (concentration: 8mM) 0.985 ± 0.053; (concentration: 10mM) 1.01 ± 0.067.

The values above are taken from the supplement of paper PMC6411743.
